Assay [1] has as its target Thrombospondin (TSP-1) (UniProt P07996). Description: optical biosensor, TSP-1 coupled to cuvette (FIG. 42).
Assay [2] has the same target. The experiment in a line: optical biosensor, TSP-1 coupled to cuvette, test protein at 10 nm.

Sequences of proteins named here, by UniProt entry; tags and fusion partners are left off. A change or cut given only in a name is not applied to a line headed by its entry. Residues count along the entry.
UniProt P07996, residues 19-1170: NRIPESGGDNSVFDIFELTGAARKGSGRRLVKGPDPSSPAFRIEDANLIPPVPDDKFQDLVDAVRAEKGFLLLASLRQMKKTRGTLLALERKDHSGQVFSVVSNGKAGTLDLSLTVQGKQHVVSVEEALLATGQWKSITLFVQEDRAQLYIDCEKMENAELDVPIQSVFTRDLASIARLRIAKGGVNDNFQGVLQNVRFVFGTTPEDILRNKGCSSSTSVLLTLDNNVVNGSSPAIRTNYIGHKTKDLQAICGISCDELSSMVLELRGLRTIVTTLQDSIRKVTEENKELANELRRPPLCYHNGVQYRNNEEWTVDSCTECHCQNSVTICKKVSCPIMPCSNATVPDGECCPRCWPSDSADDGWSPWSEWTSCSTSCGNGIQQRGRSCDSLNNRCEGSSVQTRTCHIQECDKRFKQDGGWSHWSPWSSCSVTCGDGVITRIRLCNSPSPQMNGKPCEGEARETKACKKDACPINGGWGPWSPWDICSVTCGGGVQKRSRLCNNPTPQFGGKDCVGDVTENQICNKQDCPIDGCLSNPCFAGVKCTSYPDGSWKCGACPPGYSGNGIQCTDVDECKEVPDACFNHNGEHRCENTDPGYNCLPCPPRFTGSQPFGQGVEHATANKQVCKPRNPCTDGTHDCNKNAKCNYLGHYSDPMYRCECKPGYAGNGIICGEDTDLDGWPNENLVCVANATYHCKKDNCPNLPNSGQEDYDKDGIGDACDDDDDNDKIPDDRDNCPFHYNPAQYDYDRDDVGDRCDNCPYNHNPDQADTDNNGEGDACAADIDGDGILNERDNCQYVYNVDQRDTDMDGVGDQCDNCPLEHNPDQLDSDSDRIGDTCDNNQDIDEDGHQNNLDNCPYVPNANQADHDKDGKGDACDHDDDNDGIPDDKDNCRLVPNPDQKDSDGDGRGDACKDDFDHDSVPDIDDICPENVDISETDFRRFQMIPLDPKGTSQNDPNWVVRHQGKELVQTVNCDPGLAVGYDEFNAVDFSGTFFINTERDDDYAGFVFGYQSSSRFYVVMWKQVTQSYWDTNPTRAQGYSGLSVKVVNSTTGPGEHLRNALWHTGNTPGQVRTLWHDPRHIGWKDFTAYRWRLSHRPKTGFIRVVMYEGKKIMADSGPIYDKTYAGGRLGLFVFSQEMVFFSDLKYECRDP
UniProt P55036: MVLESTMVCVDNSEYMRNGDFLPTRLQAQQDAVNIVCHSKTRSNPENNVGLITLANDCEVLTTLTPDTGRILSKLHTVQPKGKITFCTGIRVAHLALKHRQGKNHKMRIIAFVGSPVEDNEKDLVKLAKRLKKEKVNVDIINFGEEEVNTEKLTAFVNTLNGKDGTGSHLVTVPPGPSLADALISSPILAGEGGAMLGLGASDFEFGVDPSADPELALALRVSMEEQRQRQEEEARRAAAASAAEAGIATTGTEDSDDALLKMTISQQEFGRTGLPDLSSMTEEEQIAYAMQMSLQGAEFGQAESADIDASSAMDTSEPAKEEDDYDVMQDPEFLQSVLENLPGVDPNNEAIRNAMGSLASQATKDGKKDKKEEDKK

The text below walks through data of US20030180295A1, “Angiocidin: a Cys-Ser-Val-Thr-Cys-Gly specific tumor cell adhesion receptor” (Philadelphia Health and Education Corporation, priority 1999, published 2003).

Results are given in words; binding and its absence hold for the method and conditions named. Some binding calls cover weakened binding; strength is not graded here.

As to “amino terminal fragment of angiocidin (Met1-Lys132) (SEQ ID NO: 24) (from UniProt P55036 1-132) (receptor)”, the binding result with Thrombospondin (TSP-1) [1] and with Thrombospondin (TSP-1) [2] was “binds” each time.
